The results in this text go back to publication PMC12665141.

Chains of the proteins cited; added tags and fusions are not shown.
UniProt P26039: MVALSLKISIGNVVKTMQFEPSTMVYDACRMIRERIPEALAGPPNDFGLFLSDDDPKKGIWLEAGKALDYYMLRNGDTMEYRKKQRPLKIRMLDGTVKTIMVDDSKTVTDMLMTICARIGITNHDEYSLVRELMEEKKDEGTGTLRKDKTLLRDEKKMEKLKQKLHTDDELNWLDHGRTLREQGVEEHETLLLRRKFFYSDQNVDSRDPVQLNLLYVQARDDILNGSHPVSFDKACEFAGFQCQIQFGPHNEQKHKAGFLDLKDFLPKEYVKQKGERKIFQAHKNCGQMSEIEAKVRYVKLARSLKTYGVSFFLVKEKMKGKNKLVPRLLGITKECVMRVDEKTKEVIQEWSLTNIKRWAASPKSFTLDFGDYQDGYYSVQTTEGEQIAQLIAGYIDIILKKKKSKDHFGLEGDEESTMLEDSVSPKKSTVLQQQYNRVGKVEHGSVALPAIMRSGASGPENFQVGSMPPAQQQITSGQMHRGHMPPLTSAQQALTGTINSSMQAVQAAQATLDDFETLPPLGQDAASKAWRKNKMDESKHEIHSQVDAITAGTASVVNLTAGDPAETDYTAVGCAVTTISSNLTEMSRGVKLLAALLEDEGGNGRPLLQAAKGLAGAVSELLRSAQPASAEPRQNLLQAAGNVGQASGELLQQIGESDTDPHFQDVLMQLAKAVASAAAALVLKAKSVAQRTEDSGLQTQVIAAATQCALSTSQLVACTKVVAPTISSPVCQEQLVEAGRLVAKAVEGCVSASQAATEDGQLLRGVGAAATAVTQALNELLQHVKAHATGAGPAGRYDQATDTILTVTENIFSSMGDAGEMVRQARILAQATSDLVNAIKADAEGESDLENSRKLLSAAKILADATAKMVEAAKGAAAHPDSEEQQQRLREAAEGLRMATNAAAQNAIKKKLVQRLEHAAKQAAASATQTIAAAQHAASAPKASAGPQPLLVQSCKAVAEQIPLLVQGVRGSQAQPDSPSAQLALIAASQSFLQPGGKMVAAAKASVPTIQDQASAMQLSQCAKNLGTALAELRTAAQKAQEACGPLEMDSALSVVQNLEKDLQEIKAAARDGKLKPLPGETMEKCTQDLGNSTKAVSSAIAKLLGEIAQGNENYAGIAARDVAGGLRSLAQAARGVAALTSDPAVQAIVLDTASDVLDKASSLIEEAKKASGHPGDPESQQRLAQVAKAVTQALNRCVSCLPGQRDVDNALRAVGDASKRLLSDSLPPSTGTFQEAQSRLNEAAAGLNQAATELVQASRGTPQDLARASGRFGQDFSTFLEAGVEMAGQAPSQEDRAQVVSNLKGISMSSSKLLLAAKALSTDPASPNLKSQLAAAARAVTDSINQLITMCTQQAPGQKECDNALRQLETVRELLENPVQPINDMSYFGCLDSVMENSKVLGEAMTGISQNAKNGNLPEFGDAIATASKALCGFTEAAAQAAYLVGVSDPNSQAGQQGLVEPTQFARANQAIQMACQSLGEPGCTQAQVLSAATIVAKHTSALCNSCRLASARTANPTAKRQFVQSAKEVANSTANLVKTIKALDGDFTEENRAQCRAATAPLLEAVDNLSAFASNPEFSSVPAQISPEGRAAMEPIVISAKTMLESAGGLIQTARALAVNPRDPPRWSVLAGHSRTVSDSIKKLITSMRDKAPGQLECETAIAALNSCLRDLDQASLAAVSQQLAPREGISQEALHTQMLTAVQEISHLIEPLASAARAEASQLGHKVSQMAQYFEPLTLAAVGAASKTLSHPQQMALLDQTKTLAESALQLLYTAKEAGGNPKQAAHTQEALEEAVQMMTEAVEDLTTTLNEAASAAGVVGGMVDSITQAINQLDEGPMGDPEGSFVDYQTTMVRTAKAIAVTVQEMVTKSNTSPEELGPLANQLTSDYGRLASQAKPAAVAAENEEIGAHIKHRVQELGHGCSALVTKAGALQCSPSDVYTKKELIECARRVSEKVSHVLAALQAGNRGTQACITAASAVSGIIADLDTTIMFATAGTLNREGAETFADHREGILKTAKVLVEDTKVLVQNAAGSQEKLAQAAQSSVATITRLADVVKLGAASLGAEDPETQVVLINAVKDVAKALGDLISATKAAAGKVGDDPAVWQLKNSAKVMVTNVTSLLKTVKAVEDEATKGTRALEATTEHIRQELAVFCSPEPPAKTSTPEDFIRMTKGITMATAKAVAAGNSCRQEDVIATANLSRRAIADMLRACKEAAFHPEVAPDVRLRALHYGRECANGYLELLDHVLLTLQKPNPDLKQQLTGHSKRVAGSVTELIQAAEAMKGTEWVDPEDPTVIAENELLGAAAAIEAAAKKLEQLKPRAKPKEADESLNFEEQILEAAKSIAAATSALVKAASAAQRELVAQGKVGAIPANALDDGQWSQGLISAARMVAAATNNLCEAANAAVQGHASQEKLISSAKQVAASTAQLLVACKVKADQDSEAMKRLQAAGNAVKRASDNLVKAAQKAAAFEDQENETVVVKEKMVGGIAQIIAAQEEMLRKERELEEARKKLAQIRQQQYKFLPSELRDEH
UniProt P02340: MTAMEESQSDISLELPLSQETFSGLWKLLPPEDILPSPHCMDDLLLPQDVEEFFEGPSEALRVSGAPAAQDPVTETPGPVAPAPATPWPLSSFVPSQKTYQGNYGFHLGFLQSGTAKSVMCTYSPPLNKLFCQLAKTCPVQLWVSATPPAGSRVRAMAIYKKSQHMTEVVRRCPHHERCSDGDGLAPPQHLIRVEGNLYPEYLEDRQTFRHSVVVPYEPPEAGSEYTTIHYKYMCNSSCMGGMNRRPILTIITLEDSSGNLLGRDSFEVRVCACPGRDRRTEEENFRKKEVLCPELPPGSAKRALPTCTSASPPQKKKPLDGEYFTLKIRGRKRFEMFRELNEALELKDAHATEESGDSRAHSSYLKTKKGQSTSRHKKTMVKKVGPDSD

The target of test [1] is talin1 (mouse (endogenous in MLO-Y4)) (UniProt P26039). The experiment in a line: co-IP; MLO-Y4 cell extracts (RIPA buffer) incubated overnight with anti-talin1 antibody, Protein A/G magnetic beads, Western blot for p53. For orientation: In western blotting, separated proteins are transferred to a membrane and probed.
Test [2] addresses talin1-Flag (UniProt P26039). The experiment in a line: pull-down; purified talin1-Flag and p53-His incubated at 4 °C for 2 h, captured with Flag beads, eluted with Flag peptide, SDS-PAGE and Coomassie staining; 25 mM HEPES pH 7.5, 150 mM NaCl; both purified.

Results are given in words; binding and its absence hold for the method and conditions named. For some assays here: Binding seen in cells or lysates may run through a third protein. Some binding calls cover weakened binding; strength is not graded here.

For p53 (from UniProt P02340 1-390), the binding result in test [1] is “binds”.

Turning to p53-His (from UniProt P02340 1-390), in test [2], the binding result is “binds”.
